PMC10273075
Construct, isoform or probe ends are uncertain for at least one entry. No signal at the amounts used counts as a negative.

Experiments:
[1] = tested on: HIS-MYB44; test: EMSA; conditions: EMSA: protein and biotin-labeled probe incubated at 24 C for 30 min; native PAGE; recombinant protein; protein details: His (pET32a); label: biotin
[2] = tested on: HIS-ABI5; test: EMSA; conditions: EMSA: protein and biotin-labeled probe incubated at 24 C for 30 min; native PAGE; recombinant protein; protein details: His (pET32a); label: 3' biotin

| Sequence | binding result [1] | binding result [2] |
| --- | --- | --- |
| ATAAAACTGAATTTCTCTATTCAAA (double strand) [PAO-Pr2] | no binding |  |
| CTTCTTCAAACGTGTACGCAACA (double strand) [PAO-P2] |  | no binding |
| TGGATTGCAGAACTGTCTCCTAGGC (double strand) [PPH-Pr4] | no binding |  |
